From PubChem BioAssay AID2685 (National Center for Advancing Translational Sciences (NCATS), 2010) come the findings set out here.

The assay can be described thus: qHTS Assay for Lipid Storage Modulators in Drosophila S3 Cells.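 On cell number change: cells counted by Cell Tracker Red CMTPX staining in the red channel.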 The following applies: BODIPY lipid droplet fluorescence, 18-24 h; for cell number change: measured here: cell count max response, cells fed with added oleic acid. In a few lines: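 Drosophila S3 cells loaded with oleic acid (400 uM, as added) and compounds at several concentrations; lipid droplets imaged by 488-nm laser-scanning cytometry, 500–530 nm intensity and object ratio to cell channel. Percent activity normalized to 20 uM Triacsin C.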

Setting [1] is: measured here: cell number channel AC50, cells fed with added oleic acid.
Setting [2] is: measured here: lipid fluorescence (Fed channel) AC50, cells fed with added oleic acid.

The list shows a part of the results. The main result of the screen is listed elsewhere. These columns were measured beside it and carry no call. The list favours compounds with an active or inconclusive main result. The note in brackets gives the kind of curve behind each potency; many fits are weak.

With `Cc1ccc(C(=O)NCc2ccccc2)cc1Br`, the cell number change was 117%. In addition, the AC50 under setting [1] was 0.146 µM [rising, full curve]. Moreover, the concentration at half-maximal activity (AC50) under setting [2] is 23.1 µM [rising, single point].
As to `Cc1cccc(NC(=O)CSCC(=O)N2CCN(c3cccc(C(F)(F)F)c3)CC2)c1`, the cell number change is -3.28%. Further, under setting [2], the half-maximal activity concentration (AC50) is 14.6 µM [falling, partial curve].
Consider `CCN1CCN(C(=O)c2ccc(Cn3c(=O)[nH]c4cc(OC)c(OC)cc4c3=O)cc2)CC1`, for which the cell number change was found to be 15.6%.
For the compound `S=c1[nH]nc(-c2cc(-c3ccsc3)n[nH]2)n1-c1cccc2ccccc12`, the cell number change was found to be 24.5%. For the same compound, the AC50 under setting [1] was 0.82 µM [rising, full curve, poor fit]. Moreover, the half-maximal activity concentration (AC50) under setting [2] was 0.82 µM [rising, full curve, poor fit].
As for `O=C(Cc1cccc(C(F)(F)F)c1)OCN1C(=O)c2ccccc2C1=O`, the cell number change amounted to 18.3%. The AC50 under setting [2] was 1.16 µM [rising, single point].
For the compound `N#C/C(=C\Nc1ccc(F)c(Cl)c1)S(=O)(=O)c1ccccn1`, the cell number change was -36.3%. The AC50 under setting [2] is 23.1 µM [falling, single point].
As for `COc1ccc(-c2cn3cccc(C)c3n2)cc1Br`, the AC50 under setting [2] was 20.6 µM [rising, single point].
`O=C(CSC1=NS(=O)(=O)c2ccccc2N1)NCc1ccc(F)cc1`: the cell number change is -12.5%. For the same compound, the AC50 under setting [2] was 0.461 µM [falling, full curve, poor fit].
Consider `CNC(=O)COC(=O)c1cc(-c2ccccc2)nn1-c1ccccc1`, for which the cell number change came out at 8.55%. Besides, the concentration at half-maximal activity (AC50) under setting [1] was 2.31 µM [falling, partial curve]. Moreover, under setting [2], the AC50 is 6.51 µM [falling, single point].
For `CC(=O)Nc1ccccc1-c1nc2ccccc2nc1OCC(=O)c1ccc2ccccc2c1`, the cell number change was -13%. Besides, the concentration at half-maximal activity (AC50) under setting [2] is 6.51 µM [rising, single point].
With `CCN(c1ccccc1)S(=O)(=O)c1ccc2c(c1)N(C(C)=O)CCS2`, the cell number change is 7.09%.
With `CCn1c(Sc2ccc(N)cc2Cl)nc2ccccc21`, the cell number change is -5.88%. Moreover, the concentration at half-maximal activity (AC50) under setting [2] is 1.16 µM [rising, partial curve].
Turning to `O=[N+]([O-])c1ccc(O)c(/C=N/NC2=NS(=O)(=O)c3ccccc32)c1`, the half-maximal activity concentration (AC50) under setting [2] is 6.51 µM [rising, partial curve].
Take `O=S(=O)(c1cccc2cccnc12)N1CCCc2ccccc21`: the cell number change is 19.2%. Also, under setting [2], the half-maximal activity concentration (AC50) is 0.116 µM [rising, full curve, poor fit].
Turning to `CCOc1ccc2oc(C(=O)OCC(=O)N3C(C)CCCC3C)c(C)c2c1` (stereo not drawn), the cell number change was -44.9%. Besides, the AC50 under setting [1] was 11.6 µM [falling, partial curve]. Moreover, the concentration at half-maximal activity (AC50) under setting [2] is 1.3 µM [falling, full curve].
Take `Cn1c(CNc2nc3ccccc3n2CCN2CCCCC2)nc2ccccc21`: the cell number change is -8.31%. Besides, the AC50 under setting [2] is 2.59 µM [rising, single point].
Take `COc1ccccc1-c1c(C(F)(F)F)oc2cc(OS(C)(=O)=O)ccc2c1=O`: the cell number change is -15.2%.
In the case of `CC(Cc1ccsc1)NC(=O)CCc1nnc(CCc2ccccc2)o1` (stereo not drawn), the cell number change was -42.9%. Further, under setting [1], the half-maximal activity concentration (AC50) was 5.8 µM [falling, full curve, poor fit]. Besides, under setting [2], the half-maximal activity concentration (AC50) was 16.4 µM [falling, partial curve].
As for `O=C(COC(=O)c1ccc(OC(F)(F)F)cc1)NCCN1C(=O)CSC1=O`, the cell number change was -48.6%. Also, under setting [1], the half-maximal activity concentration (AC50) was 0.651 µM [falling, full curve]. For the same compound, the concentration at half-maximal activity (AC50) under setting [2] was 0.651 µM [falling, full curve].
Take `CCOC(=O)N1CCN(c2ncnc3c2oc2nc(C(C)C)c4c(c23)CCC4)CC1`: the cell number change is 20.1%. The AC50 under setting [2] was 0.82 µM [falling, full curve].
On to `C=C(C)CSc1nnc2n(Cc3ccccc3)c(=O)c3c4c(sc3n12)CCC4`, for which the cell number change worked out at 18.9%.
Turning to `COc1ccc([C@H]2CC(=O)C=C(c3ccc(NC(C)=O)cc3)C2)cc1OC`, the cell number change was -4.59%. The AC50 under setting [1] is 0.164 µM [falling, partial curve]. Moreover, the AC50 under setting [2] is 1.3 µM [falling, partial curve, poor fit].
`O=C(/C=C/c1ccc([N+](=O)[O-])o1)NNC(=O)c1ccc(F)cc1`: the cell number change was -41.8%. Further, the AC50 under setting [1] was 1.16 µM [falling, full curve]. Besides, the concentration at half-maximal activity (AC50) under setting [2] was 1.3 µM [falling, full curve].
With `CN(C)S(=O)(=O)N(CC(=O)N1CCC(Cc2ccccc2)CC1)c1ccccc1`, the cell number change is -31.5%. Moreover, the half-maximal activity concentration (AC50) under setting [1] is 32.6 µM [falling, single point]. Also, under setting [2], the AC50 is 0.651 µM [rising, single point].
Take `CC(=O)CCCC(NS(=O)(=O)CCC(Cl)(Cl)Cl)c1ccccc1` (stereo not drawn): the cell number change turned out to be 23.6%. For the same compound, the AC50 under setting [2] was 29.1 µM [rising, single point].
On to `O=C(NC(=S)NCc1ccco1)c1ccc(Br)cc1`, for which the cell number change worked out at 30.2%. Moreover, the AC50 under setting [1] is 0.092 µM [rising, full curve]. The AC50 under setting [2] is 8.2 µM [rising, partial curve].
In the case of `COc1ccc(S(=O)(=O)N/N=C\c2ccc([N+](=O)[O-])o2)c(OC)c1`, the concentration at half-maximal activity (AC50) under setting [2] is 29.1 µM [falling, single point].
For the compound `Cc1cccc2c(CC(=O)O)noc12`, the cell number change came out at 50%. Moreover, the half-maximal activity concentration (AC50) under setting [1] was 16.4 µM [rising, single point]. Also, the half-maximal activity concentration (AC50) under setting [2] was 11.6 µM [rising, partial curve, poor fit].
For the compound `COc1cc(CCC(=O)OCC(=O)Nc2ccc(C)cc2Br)cc(OC)c1OC`, the cell number change was -10.5%. Moreover, the AC50 under setting [1] was 7.31 µM [falling, single point].
As for `O=C(CSc1nccc(=O)[nH]1)Nc1ccc(Br)c(Cl)c1`, the cell number change was -4.68%. In addition, the AC50 under setting [1] is 0.326 µM [falling, partial curve].
For `CCOc1ccc(S(=O)(=O)NC(C)C(=O)NC2CCCC2)cc1` (stereo not drawn), the cell number change was -14.7%. Besides, the AC50 under setting [2] was 2.06 µM [rising, partial curve].
As to `CCCCNC(=O)Nc1cc(C(=O)OC)ccc1Cl`, the cell number change was found to be 5.19%. Moreover, the half-maximal activity concentration (AC50) under setting [2] was 29.1 µM [rising, single point].
`Cc1ccc(OC(=O)C2CSC3(C)CCC(=O)N23)c(Br)c1` (stereo not drawn): the cell number change is -21.3%. The concentration at half-maximal activity (AC50) under setting [1] is 0.13 µM [falling, full curve].
Consider `O=S(=O)(c1ccccc1)C1CON(Cc2ccccc2)C1c1ccccc1` (stereo not drawn), for which the cell number change was 7.19%. Further, the AC50 under setting [2] is 6.51 µM [falling, single point].
On to `CC(=O)Nc1ccc(C(=O)Nc2ccc(S(=O)(=O)N3CCOCC3)cc2)cc1`, for which the half-maximal activity concentration (AC50) under setting [2] is 1.84 µM [rising, partial curve, poor fit].
For the compound `O=C(CN1C(=O)NC2(CCOc3ccccc32)C1=O)Nc1ccc(Br)cc1F` (stereo not drawn), the cell number change was -1.47%. Under setting [2], the AC50 was 3.26 µM [rising, single point].
Regarding `NC(=S)Cc1ccccc1Cl`, the cell number change came out at 10.8%. Under setting [2], the concentration at half-maximal activity (AC50) was 6.51 µM [falling, single point].
For the compound `O=c1[nH]c2ccc(NS(=O)(=O)c3ccc4ccccc4c3)cc2[nH]1`, the cell number change was determined as 9.27%.
As for `CC(C)Oc1ccc(Nc2ncnc3ccccc23)cc1`, the cell number change was -41.5%. The half-maximal activity concentration (AC50) under setting [1] was 29.1 µM [falling, single point].
In the case of `O=C(Nc1ccc([N+](=O)[O-])cn1)c1cc(-c2cccc(Br)c2)nc2ccccc12`, the cell number change was -53.2%. For the same compound, the AC50 under setting [1] is 18.4 µM [falling, single point]. Besides, the AC50 under setting [2] is 23.1 µM [rising, partial curve].
Regarding `Cc1[nH]c2ccccc2c1Cc1nnc(SCc2ccccc2)o1`, the concentration at half-maximal activity (AC50) under setting [1] is 3.66 µM [rising, single point].
Take `CCSc1nnc(NC(=O)CC)s1`: the cell number change is 8.1%. In addition, the AC50 under setting [2] was 0.13 µM [rising, full curve, poor fit].
For the compound `O=C(Nc1ccccc1Cl)C1CCN(S(=O)(=O)c2cccc3nonc23)CC1`, the cell number change was -87.4%. Further, the AC50 under setting [1] is 29.1 µM [falling, single point].
Take `COc1ccc(NS(=O)(=O)c2cccc(C(=O)NCCCn3ccnc3)c2)cc1`: the cell number change is 69%.
On to `CC1(C)Cc2c(sc3nc(-c4cccs4)n(N)c(=O)c23)CO1`, for which the cell number change was -31.8%. Besides, under setting [1], the AC50 was 29.1 µM [falling, single point]. For the same compound, the concentration at half-maximal activity (AC50) under setting [2] is 20.6 µM [falling, partial curve].
In the case of `CN(CCC1CCOCC1)C(=O)CC1C(=O)NCCN1Cc1cccc(F)c1` (stereo not drawn), the cell number change is -2.45%. Under setting [2], the AC50 was 0.0651 µM [rising, full curve, poor fit].
In the case of `N#Cc1cnn2c(-c3cccc([N+](=O)[O-])c3)ccnc12`, the cell number change was determined as 22%. Further, the AC50 under setting [2] is 32.6 µM [rising, single point].
In the case of `Cc1noc(C)c1COc1cccc(C(=O)NCc2cccc(Cl)c2)c1`, the cell number change is -6.56%.
Consider `Cc1nn(-c2cccc(Cl)c2)c2nc(-c3ccncc3)cc(C(=O)N3CCOCC3)c12`, for which the cell number change amounted to 36.1%. Besides, the AC50 under setting [1] was 32.6 µM [rising, single point]. In addition, under setting [2], the concentration at half-maximal activity (AC50) is 0.116 µM [rising, full curve, poor fit].
As to `Cc1ccc2c(c1)NC(=O)C(CC(=O)NCCCN1CCc3ccccc3C1)O2` (stereo not drawn), the cell number change was 19.2%. The AC50 under setting [2] was 1.3 µM [rising, full curve, poor fit].
On to `Clc1ccc2nc(-c3cccc(SC4CCCCC4)c3)c(NCc3ccccc3)n2c1`, for which the cell number change was found to be 17%.
For the compound `CCn1c(C)nc2cc(-c3nnc(-c4c(-c5ccccc5)noc4C)o3)ccc21`, the cell number change was -35.5%. Further, the concentration at half-maximal activity (AC50) under setting [1] is 10.3 µM [falling, partial curve, poor fit]. For the same compound, the half-maximal activity concentration (AC50) under setting [2] is 14.6 µM [falling, partial curve].
For the compound `N#C/C(=C/c1ccncc1)c1nc2ccccc2s1`, the cell number change is -39.9%. The AC50 under setting [1] is 18.4 µM [falling, single point]. For the same compound, under setting [2], the AC50 is 23.1 µM [falling, single point].
Turning to `CCN(CC)CCCN1C(=O)C(O)=C(C(=O)c2sc(C)nc2C)C1c1ccco1` (stereo not drawn), the cell number change came out at 9.34%. For the same compound, the AC50 under setting [2] is 0.0259 µM [falling, full curve].
With `Cc1cc(O)c(/C=N/Nc2ccc(Cl)cc2)c(=O)o1`, the cell number change was -1.86%. Besides, under setting [2], the AC50 was 2.31 µM [falling, partial curve, poor fit].
`COc1ccc(N2CCN(C(=O)CN(c3ccccc3)S(C)(=O)=O)CC2)cc1`: the cell number change was -8.93%.
As for `O=c1[nH]c(SCc2ccccc2)nc2c1sc1ccccc12`, the cell number change is 11.3%. For the same compound, the concentration at half-maximal activity (AC50) under setting [2] was 3.66 µM [rising, single point].
As to `Cc1cc(=O)n(CNC(=O)c2ccccc2)c(=S)[nH]1`, the cell number change amounted to 0.441%. In addition, the AC50 under setting [2] is 0.58 µM [falling, single point].
